We go through six molecules from patent publication US20220074941A1, “HSP90 COMBINATION THERAPY” (Sloan-Kettering Institute for Cancer Research, priority 2011, published 2022).

The subject of data set [1] is Hsp90 complexes in K562 cell extract. Nature of the data set: Nano-LC-MS/MS of PU-beads pull-downs. Format: binding. The note with it: protein identified in PU-beads pull-down of K562 extract, QSTAR-Elite QTof MS. In outline:
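Proteins were identified by data-dependent nano LC-MS/MS (QTof, ESI) and Mascot searching (p<0.05), then reported as spectral counts and coverage via Scaffold. Inputs were PU-bead versus control-bead pull-downs from lysate pre-cleared with control beads overnight at 4 °C, eluted by boiling in 2% SDS.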

Data set [2] relates to Hsp90 complexes in Mia-PaCa-2 cell extract. Nature of the data set: Nano-LC-MS/MS of PU-beads pull-downs. Type of data set: binding, human. The following applies: protein identified in PU-beads pull-down of Mia-Paca 2 extract; QSTAR-Elite QTof MS. In outline:
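They came from PU-bead pull-downs of pre-cleared lysates (control beads, overnight, 4 °C), eluted by boiling in 2% SDS, gel-separated and run by data-dependent nano-ESI QTof MS/MS.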

B1: PDCD4 (protein, UniProt Q53EL6 1-469, looked up)
Programmed cell death protein …: MDVENEQILNVNPADPDNLSDSLFSGDEENAGTEEIKNEINGNWISASSINEARINAKAKRRLRKNSSRDSGRGDSVSDSGSDALRSGLTVPTSPKGRLLDRRSRSGKGRGLPKKGGAGGKGVWGTPGQVYDVEEVDVKDPNYDDDQENCVYETVVLPLDERAFEKTLTPIIQEYFEHGDTNEVAEMLRDLNLGEMKSGVPVLAVSLALEGKASHREMTSKLLSDLCGTVMSTTDVEKSFDKLLKDLPELALDTPRAPQLVGQFIARAVGDGILCNTYIDSYKGTVDCVQARAALDKATVLLSMSKGGKRKDSVWGSGGGQQSVNHLVKEIDMLLKEYLLSGDISEAEHCLKELEVPHFHHELVYEAIIMVLESTGESTFKMILDLLKSLWKSSTITVDQMKRGYERIYNEIPDINLDVPHSYSVLERFVEECFQAGIISKQLRDLCPSRGRKRFVSEGDGGRLKPESY
With B1, in data set [1], the “Number of Assigned Spectra, K562 Prep 1” value worked out at 2 and the “Number of Assigned Spectra, K562 Prep 2” value is 5. Also, the “Number of Assigned Spectra, Mia-Paca 2” value in data set [2] was found to be 3.

B2: VAV1 (protein)
chain: MELWRQCTHWLIQCRVLPPSHRVTWDGAQVCELAQALRDGVLLCQLLNNLLPHAINLREVNLRPQMSQFLCLKNIRTFLSTCCEKFGLKRSELFEAFDLFDVQDFGKVIYTLSALSWTPIAQNRGIMPFPTEEESVGDEDIYSGLSDQIDDTVEEDEDLYDCVENEEAEGDEIYEDLMRSEPVSMPPKMTEYDKRCCCLREIQQTEEKYTDTLGSIQQHFLKPLQRFLKPQDIEIIFINIEDLLRVHTHFLKEMKEALGTPGAANLYQVFIKYKERFLVYGRYCSQVESASKHLDRVAAAREDVQMKLEECSQRANNGRFTLRDLLMVPMQRVLKYHLLLQELVKHTQEAMEKENLRLALDAMRDLAQCVNEVKRDNETLRQITNFQLSIENLDQSLAHYGRPKIDGELKITSVERRSKMDRYAFLLDKALLICKRRGDSYDLKDFVNLHSFQVRDDSSGDRDNKKWSHMFLLIEDQGAQGYELFFKTRELKKKWMEQFEMAISNIYPENATANGHDFQMFSFEETTSCKACQMLLRGTFYQGYRCHRCRASAHKECLGRVPPCGRHGQDFPGTMKKDKLHRRAQDKKRNELGLPKMEVFQEYYGLPPPPGAIGPFLRLNPGDIVELTKAEAEQNWWEGRNTSTNEIGWFPCNRVKPYVHGPPQDLSVHLWYAGPMERAGAESILANRSDGTFLVRQRVKDAAEFAISIKYNVEVKHIKIMTAEGLYRITEKKAFRGLTELVEFYQQNSLKDCFKSLDTTLQFPFKEPEKRTISRPAVGSTKYFGTAKARYDFCARDRSELSLKEGDIIKILNKKGQQGWWRGEIYGRVGWFPANYVEEDYSEYC
In the case of B2, in data set [1], the “Number of Assigned Spectra, K562 Prep 1” value was 3 and the “Number of Assigned Spectra, K562 Prep 2” value is 1. In data set [2], the “Number of Assigned Spectra, Mia-Paca 2” value amounted to 0.

B3: TELO2 (protein, UniProt Q9Y4R8 1-837, looked up)
Telomere length regulation …: MEPAPSEVRLAVREAIHALSSSEDGGHIFCTLESLKRYLGEMEPPALPREKEEFASAHFSPVLRCLASRLSPAWLELLPHGRLEELWASFFLEGPADQAFLVLMETIEGAAGPSFRLMKMARLLARFLREGRLAVLMEAQCRQQTQPGFILLRETLLGKVVALPDHLGNRLQQENLAEFFPQNYFRLLGEEVVRVLQAVVDSLQGGLDSSVSFVSQVLGKACVHGRQQEILGVLVPRLAALTQGSYLHQRVCWRLVEQVPDRAMEAVLTGLVEAALGPEVLSRLLGNLVVKNKKAQFVMTQKLLFLQSRLTTPMLQSLLGHLAMDSQRRPLLLQVLKELLETWGSSSAIRHTPLPQQRHVSKAVLICLAQLGEPELRDSRDELLASMMAGVKCRLDSSLPPVRRLGMIVAEVVSARIHPEGPPLKFQYEEDELSLELLALASPQPAGDGASEAGTSLVPATAEPPAETPAEIVDGGVPQAQLAGSDSDLDSDDEFVPYDMSGDRELKSSKAPAYVRDCVEALTTSEDIERWEAALRALEGLVYRSPTATREVSVELAKVLLHLEEKTCVVGFAGLRQRALVAVTVTDPAPVADYLTSQFYALNYSLRQRMDILDVLTLAAQELSRPGCLGRTPQPGSPSPNTPCLPEAAVSQPGSAVASDWRVVVEERIRSKTQRLSKGGPRQGPAGSPSRFNSVAGHFFFPLLQRFDRPLVTFDLLGEDQLVLGRLAHTLGALMCLAVNTTVAVAMGKALLEFVWALRFHIDAYVRQGLLSAVSSVLLSLPAARLLEDLMDELLEARSWLADVAEKDPDEDCRTLALRALLLLQRLKNRLLPPASP
Take B3: in data set [1], the “Number of Assigned Spectra, K562 Prep 1” value is given as 11 and the “Number of Assigned Spectra, K562 Prep 2” value worked out at 1. The “Number of Assigned Spectra, Mia-Paca 2” value in data set [2] worked out at 1.

B4: BTK (protein)
chain: AAVILESIFLKRSQQKKKTSPLNFKKRLFLLTVHKLSYYEYDFERGRRGSKKGSIDVEKITCVETVVPEKNPPPERQIPRRGEESSEMEQISIIERFPYPFQVVYDEGPLYVFSPTEELRKRWIHQLKNVIRYNSDLVQKYHPCFWIDGQYLCCSQTAKNAMGCQILENRNGSLKPGSSHRKTKKPLPPTPEEDQILKKPLPPEPAAAPVSTSELKKVVALYDYMPMNANDLQLRKGDEYFILEESNLPWWRARDKNGQEGYIPSNYVTEAEDSIEMYEWYSKHMTRSQAEQLLKQEGKEGGFIVRDSSKAGKYTVSVFAKSTGDPQGVIRHYVVCSTPQSQYYLAEKHLFSTIPELINYHQHNSAGLISRLKYPVSQQNKNAPSTAGLGYGSWEIDPKDLTFLKELGTGQFGVVKYGKWRGQYDVAIKMIKEGSMSEDEFIEEAKVMMNLSHEKLVQLYGVCTKQRPIFIITEYMANGCLLNYLREMRHRFQTQQLLEMCKDVCEAMEYLESKQFLHRDLAARNCLVNDQGVVKVSDFGLSRYVLDDEYTSSVGSKFPVRWSPPEVLMYSKFSSKSDIWAFGVLMWEIYSLGKMPYERFTNSETAEHIAQGLRLYRPHLASEKVYTIMYSCWHEKADERPTFKILLSNILDVMDEES
On to B4, for which, in data set [1], the “Number of Assigned Spectra, K562 Prep 1” value was determined as 11 and the “Number of Assigned Spectra, K562 Prep 2” value was found to be 8. The “Number of Assigned Spectra, Mia-Paca 2” value in data set [2] stood at 0.

B5: STAT5A (protein)
chain: MAGWIQAQQLQGDALRQMQVLYGQHFPIEVRHYLAQWIESQPWDAIDLDNPQDRAQATQLLEGLVQELQKKAEHQVGEDGFLLKIKLGHYATQLQKTYDRCPLELVRCIRHILYNEQRLVREANNCSSPAGILVDAMSQKHLQINQTFEELRLVTQDTENELKKLQQTQEYFIIQYQESLRIQAQFAQLAQLSPQERLSRETALQQKQVSLEAWLQREAQTLQQYRVELAEKHQKTLQLLRKQQTIILDDELIQWKRRQQLAGNGGPPEGSLDVLQSWCEKLAEIIWQNRQQIRRAEHLCQQLPIPGPVEEMLAEVNATITDIISALVTSTFIIEKQPPQVLKTQTKFAATVRLLVGGKLNVHMNPPQVKATIISEQQAKSLLKNENTRNECSGEILNNCCVMEYHQATGTLSAHFRNMSLKRIKRADRRGAESVTEEKFTVLFESQFSVGSNELVFQVKTLSLPVVVIVHGSQDHNATATVLWDNAFAEPGRVPFAVPDKVLWPQLCEALNMKFKAEVQSNRGLTKENLVFLAQKLFNNSSSHLEDYSGLSVSWSQFNRENLPGWNYTFWQWFDGVMEVLKKHHKPHWNDGAILGFVNKQQAHDLLINKPDGTFLLRFSDSEIGGITIAWKFDSPERNLWNLKPFTTRDFSIRSLADRLGDLSYLIYVFPDRPKDEVFSKYYTPVLAKAVDGYVKPQIKQVVPEFVNASADAGGSSATYMDQAPSPAVCPQAPYNMYPQNPDHVLDQDGEFDLDETMDVARHVEELLRRPMDSLDSRLSPPAGLFTSARGSLS
In the case of B5, in data set [1], the “Number of Assigned Spectra, K562 Prep 1” value came to 48 and the “Number of Assigned Spectra, K562 Prep 2” value was found to be 25. For the same molecule, the “Number of Assigned Spectra, Mia-Paca 2” value in data set [2] was determined as 0.

B6: STAT5B (protein)
chain: MAGWIQAQQLQGDALRQMQVLYGQHFPIEVRHYLAQWIESQPWDAIDLDNPQDRAQATQLLEGLVQELQKKAEHQVGEDGFLLKIKLGHYATQLQKTYDRCPLELVRCIRHILYNEQRLVREANNCSSPAGILVDAMSQKHLQINQTFEELRLVTQDTENELKKLQQTQEYFIIQYQESLRIQAQFAQLAQLSPQERLSRETALQQKQVSLEAWLQREAQTLQQYRVELAEKHQKTLQLLRKQQTIILDDELIQWKRRQQLAGNGGPPEGSLDVLQSWCEKLAEIIWQNRQQIRRAEHLCQQLPIPGPVEEMLAEVNATITDIISALVTSTFIIEKQPPQVLKTQTKFAATVRLLVGGKLNVHMNPPQVKATIISEQQAKSLLKNENTRNECSGEILNNCCVMEYHQATGTLSAHFRNMSLKRIKRADRRGAESVTEEKFTVLFESQFSVGSNELVFQVKTLSLPVVVIVHGSQDHNATATVLWDNAFAEPGRVPFAVPDKVLWPQLCEALNMKFKAEVQSNRGLTKENLVFLAQKLFNNSSSHLEDYSGLSVSWSQFNRENLPGWNYTFWQWFDGVMEVLKKHHKPHWNDGAILGFVNKQQAHDLLINKPDGTFLLRFSDSEIGGITIAWKFDSPERNLWNLKPFTTRDFSIRSLADRLGDLSYLIYVFPDRPKDEVFSKYYTPVLAKAVDGYVKPQIKQVVPEFVNASADAGGSSATYMDQAPSPAVCPQAPYNMYPQNPDHVLDQDGEFDLDETMDVARHVEELLRRPMDSLDSRLSPPAGLFTSARGSLS
Take B6: in data set [1], the “Number of Assigned Spectra, K562 Prep 1” value worked out at 10 and the “Number of Assigned Spectra, K562 Prep 2” value is recorded as 5. Besides, the “Number of Assigned Spectra, Mia-Paca 2” value in data set [2] was 0.
